Laboratory results published in doi:10.1101/2021.04.10.439283.
These are yes or no findings as the source states them, for the method shown. Some entries that bind do so weakly or less than the wild type. Where a sequence is shown, tags or fusion partners need not be part of it.

Target: T1, Mre11 fused to lexA-DBD (S. cerevisiae) (UniProt P32829)
T1 sequence: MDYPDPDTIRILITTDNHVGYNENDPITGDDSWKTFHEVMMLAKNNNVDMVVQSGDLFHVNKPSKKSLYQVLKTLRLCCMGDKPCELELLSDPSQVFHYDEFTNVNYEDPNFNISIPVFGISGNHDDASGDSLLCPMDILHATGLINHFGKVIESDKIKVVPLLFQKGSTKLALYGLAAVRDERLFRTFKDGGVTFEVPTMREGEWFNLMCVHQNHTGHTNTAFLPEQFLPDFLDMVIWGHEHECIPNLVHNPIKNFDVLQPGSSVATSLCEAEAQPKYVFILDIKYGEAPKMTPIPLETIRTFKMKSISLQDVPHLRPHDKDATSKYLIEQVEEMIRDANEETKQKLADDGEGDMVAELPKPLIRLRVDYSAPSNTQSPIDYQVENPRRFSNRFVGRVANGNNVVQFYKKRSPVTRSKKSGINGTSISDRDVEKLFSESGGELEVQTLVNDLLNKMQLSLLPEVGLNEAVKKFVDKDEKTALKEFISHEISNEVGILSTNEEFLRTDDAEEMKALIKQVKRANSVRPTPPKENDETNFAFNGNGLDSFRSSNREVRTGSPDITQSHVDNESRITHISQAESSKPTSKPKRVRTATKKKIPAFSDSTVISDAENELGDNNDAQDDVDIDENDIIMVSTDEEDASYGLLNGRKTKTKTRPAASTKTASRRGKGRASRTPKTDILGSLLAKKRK
Assay: two-hybrid

binding: binds
B1: Rad50 fused to HA-AD (protein, UniProt P12753 1-1312)
chain: MSAIYKLSIQGIRSFDSNDRETIEFGKPLTLIVGMNGSGKTTIIECLKYATTGDLPPNSKGGVFIHDPKITGEKDIRAQVKLAFTSANGLNMIVTRNIQLLMKKTTTTFKTLEGQLVAINNSGDRSTLSTRSLELDAQVPLYLGVPKAILEYVIFCHQEDSLWPLSEPSNLKKKFDEIFQAMKFTKALDNLKSIKKDMSVDIKLLKQSVEHLKLDKDRSKAMKLNIHQLQTKIDQYNEEVSEIESQLNEITEKSDKLFKSNQDFQKILSKVENLKNTKLSISDQVKRLSNSIDILDLSKPDLQNLLANFSKVLMDKNNQLRDLETDISSLKDRQSSLQSLSNSLIRRQGELEAGKETYEKNRNHLSSLKEAFQHKFQGLSNIENSDMAQVNHEMSQFKAFISQDLTDTIDQFAKDIQLKETNLSDLIKSITVDSQNLEYNKKDRSKLIHDSEELAEKLKSFKSLSTQDSLNHELENLKTYKEKLQSWESENIIPKLNQKIEEKNNEMIILENQIEKFQDRIMKTNQQADLYAKLGLIKKSINTKLDELQKITEKLQNDSRIRQVFPLTQEFQRADLEMDFQKLFINMQKNIAINNKKMHELDRRYTNALYNLNTIEKDLQDNQKSKEKVIQLLSENLPEDCTIDEYNDVLEETELSYKTALENLKMHQTTLEFNRKALEIAERDSCCYLCSRKFENESFKSKLLQELKTKTDANFEKTLKDTVQNEKEYLHSLRLLEKHIITLNSINEKIDNSQKCLEKAKEETKTSKSKLDELEVDSTKLKDEKELAESEIRPLIEKFTYLEKELKDLENSSKTISEELSIYNTSEDGIQTVDELRDQQRKMNDSLRELRKTISDLQMEKDEKVRENSRMINLIKEKELTVSEIESSLTQKQNIDDSIRSKRENINDIDSRVKELEARIISLKNKKDEAQSVLDKVKNERDIQVRNKQKTVADINRLIDRFQTIYNEVVDFEAKGFDELQTTIKELELNKAQMLELKEQLDLKSNEVNEEKRKLADSNNEEKNLKQNLELIELKSQLQHIESEISRLDVQNAEAERDKYQEESLRLRTRFEKLSSENAGKLGEMKQLQNQIDSLTHQLRTDYKDIEKNYHKEWVELQTRSFVTDDIDVYSKALDSAIMKYHGLKMQDINRIIDELWKRTYSGTDIDTIKIRSDEVSSTVKGKSYNYRVVMYKQDVELDMRGRCSAGQKVLASIIIRLALSETFGANCGVIALDEPTTNLDEENIESLAKSLHNIINMRRHQKNFQLIVITHDEKFLGHMNAAAFTDHFFKVKRDDRQKSQIEWVDINRVTY
